# The supplement of paper PMC10849652
# Sequences of proteins named here, by UniProt entry; tags and fusion partners are left off. A change or cut given only in a name is not applied to a line headed by its entry.
# UniProt Q6PIU2: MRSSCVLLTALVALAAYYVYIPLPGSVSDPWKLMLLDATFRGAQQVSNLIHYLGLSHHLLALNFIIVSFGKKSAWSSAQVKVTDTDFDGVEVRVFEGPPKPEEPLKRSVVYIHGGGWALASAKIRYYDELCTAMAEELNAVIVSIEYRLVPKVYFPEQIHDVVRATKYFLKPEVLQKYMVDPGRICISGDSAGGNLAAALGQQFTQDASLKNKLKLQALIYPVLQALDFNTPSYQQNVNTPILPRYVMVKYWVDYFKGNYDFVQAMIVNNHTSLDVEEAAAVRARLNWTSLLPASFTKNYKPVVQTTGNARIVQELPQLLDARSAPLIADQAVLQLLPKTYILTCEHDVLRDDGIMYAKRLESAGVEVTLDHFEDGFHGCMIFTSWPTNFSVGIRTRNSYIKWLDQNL
# UniProt O43776: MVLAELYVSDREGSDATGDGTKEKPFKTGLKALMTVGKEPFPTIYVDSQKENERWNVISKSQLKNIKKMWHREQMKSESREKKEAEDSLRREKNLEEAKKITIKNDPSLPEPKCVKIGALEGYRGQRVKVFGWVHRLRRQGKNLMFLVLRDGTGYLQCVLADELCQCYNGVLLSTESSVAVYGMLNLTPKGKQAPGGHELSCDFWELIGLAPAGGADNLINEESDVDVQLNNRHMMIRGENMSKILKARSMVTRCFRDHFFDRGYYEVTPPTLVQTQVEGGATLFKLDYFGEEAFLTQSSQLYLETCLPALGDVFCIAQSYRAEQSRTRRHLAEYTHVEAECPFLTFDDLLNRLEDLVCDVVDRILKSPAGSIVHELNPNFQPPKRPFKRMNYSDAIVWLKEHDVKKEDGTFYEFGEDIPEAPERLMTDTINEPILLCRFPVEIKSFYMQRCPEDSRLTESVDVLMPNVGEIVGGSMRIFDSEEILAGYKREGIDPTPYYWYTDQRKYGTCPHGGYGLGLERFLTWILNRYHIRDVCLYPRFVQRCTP
# UniProt Q9BXJ9: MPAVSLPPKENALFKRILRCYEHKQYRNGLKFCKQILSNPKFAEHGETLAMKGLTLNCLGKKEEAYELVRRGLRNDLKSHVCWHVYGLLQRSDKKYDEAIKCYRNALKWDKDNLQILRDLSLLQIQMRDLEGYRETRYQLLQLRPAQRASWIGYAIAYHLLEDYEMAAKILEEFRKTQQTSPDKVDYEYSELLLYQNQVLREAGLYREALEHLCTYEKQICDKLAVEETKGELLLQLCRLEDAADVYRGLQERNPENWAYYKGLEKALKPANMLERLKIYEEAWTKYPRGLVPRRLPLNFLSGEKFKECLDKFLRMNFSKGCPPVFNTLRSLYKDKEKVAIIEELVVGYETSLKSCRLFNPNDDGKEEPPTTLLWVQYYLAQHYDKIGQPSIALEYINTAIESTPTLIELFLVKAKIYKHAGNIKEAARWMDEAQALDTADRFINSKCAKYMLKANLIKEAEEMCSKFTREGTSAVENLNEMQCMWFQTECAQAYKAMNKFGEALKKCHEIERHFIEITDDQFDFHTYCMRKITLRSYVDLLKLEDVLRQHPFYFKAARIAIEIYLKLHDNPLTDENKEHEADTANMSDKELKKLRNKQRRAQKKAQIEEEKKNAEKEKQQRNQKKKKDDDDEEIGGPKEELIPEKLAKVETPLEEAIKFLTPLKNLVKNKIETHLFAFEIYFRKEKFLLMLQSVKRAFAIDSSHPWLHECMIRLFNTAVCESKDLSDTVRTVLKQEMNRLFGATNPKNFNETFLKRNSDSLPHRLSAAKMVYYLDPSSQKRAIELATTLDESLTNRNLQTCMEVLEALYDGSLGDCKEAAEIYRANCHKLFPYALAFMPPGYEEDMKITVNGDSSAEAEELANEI
# UniProt O75376, whole entry, looked up: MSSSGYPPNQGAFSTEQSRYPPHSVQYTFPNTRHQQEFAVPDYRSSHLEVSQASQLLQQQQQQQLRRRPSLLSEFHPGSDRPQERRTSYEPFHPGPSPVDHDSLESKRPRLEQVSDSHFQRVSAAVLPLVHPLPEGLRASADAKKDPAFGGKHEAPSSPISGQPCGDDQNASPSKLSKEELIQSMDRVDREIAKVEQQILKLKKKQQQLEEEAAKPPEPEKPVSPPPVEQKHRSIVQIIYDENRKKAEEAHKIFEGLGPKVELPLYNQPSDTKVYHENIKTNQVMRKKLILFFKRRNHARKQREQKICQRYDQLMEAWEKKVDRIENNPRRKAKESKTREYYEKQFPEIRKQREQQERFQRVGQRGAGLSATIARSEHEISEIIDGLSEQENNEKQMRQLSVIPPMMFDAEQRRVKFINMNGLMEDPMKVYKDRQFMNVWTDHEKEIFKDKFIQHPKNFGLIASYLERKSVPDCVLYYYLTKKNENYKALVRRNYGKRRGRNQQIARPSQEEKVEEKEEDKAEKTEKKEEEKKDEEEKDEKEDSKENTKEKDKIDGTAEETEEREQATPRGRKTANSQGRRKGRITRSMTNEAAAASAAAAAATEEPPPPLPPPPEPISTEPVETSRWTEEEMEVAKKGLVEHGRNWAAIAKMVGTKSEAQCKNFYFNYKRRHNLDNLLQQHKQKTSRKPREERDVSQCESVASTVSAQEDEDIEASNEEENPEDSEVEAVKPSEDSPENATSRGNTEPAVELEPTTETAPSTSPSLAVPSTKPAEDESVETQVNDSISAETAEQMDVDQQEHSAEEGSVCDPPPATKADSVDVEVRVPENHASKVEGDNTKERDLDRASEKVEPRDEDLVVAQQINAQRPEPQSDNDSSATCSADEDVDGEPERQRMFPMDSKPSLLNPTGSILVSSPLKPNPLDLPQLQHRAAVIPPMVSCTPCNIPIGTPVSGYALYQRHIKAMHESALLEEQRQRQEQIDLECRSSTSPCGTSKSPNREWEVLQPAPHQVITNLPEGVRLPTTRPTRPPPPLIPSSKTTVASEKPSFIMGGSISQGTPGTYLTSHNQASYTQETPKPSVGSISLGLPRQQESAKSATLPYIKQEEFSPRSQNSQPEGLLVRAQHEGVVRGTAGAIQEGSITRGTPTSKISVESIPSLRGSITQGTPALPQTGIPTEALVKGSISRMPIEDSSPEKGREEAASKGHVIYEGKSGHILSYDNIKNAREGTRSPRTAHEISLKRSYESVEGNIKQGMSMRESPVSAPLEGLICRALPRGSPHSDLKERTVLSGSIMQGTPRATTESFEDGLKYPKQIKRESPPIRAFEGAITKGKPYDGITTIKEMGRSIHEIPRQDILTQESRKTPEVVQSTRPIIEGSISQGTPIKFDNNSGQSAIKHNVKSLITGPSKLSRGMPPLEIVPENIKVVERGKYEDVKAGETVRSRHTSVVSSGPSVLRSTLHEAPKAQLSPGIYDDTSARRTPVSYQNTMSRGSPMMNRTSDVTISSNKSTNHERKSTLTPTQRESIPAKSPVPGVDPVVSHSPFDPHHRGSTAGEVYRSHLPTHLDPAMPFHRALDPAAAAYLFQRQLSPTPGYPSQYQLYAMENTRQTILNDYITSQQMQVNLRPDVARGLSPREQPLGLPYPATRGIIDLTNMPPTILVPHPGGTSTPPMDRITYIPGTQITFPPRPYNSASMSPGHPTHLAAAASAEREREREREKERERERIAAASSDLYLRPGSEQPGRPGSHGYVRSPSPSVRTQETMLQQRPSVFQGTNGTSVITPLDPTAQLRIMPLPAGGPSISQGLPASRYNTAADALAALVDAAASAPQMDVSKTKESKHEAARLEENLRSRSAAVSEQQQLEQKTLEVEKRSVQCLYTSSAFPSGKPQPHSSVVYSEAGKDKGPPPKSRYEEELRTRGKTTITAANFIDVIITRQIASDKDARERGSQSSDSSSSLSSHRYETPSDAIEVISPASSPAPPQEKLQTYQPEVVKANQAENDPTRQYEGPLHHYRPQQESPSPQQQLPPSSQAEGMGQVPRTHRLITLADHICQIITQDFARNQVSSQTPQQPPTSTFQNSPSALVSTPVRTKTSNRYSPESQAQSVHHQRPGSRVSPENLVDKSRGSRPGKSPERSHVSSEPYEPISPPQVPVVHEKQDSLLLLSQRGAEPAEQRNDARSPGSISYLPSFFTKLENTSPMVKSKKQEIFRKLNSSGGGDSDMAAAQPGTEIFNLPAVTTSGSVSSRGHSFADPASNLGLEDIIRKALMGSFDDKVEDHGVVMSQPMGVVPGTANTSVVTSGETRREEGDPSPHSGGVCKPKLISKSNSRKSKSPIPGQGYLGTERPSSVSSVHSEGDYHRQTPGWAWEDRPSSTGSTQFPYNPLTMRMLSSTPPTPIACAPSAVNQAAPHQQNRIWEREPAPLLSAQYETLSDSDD
# UniProt O43639, whole entry, looked up: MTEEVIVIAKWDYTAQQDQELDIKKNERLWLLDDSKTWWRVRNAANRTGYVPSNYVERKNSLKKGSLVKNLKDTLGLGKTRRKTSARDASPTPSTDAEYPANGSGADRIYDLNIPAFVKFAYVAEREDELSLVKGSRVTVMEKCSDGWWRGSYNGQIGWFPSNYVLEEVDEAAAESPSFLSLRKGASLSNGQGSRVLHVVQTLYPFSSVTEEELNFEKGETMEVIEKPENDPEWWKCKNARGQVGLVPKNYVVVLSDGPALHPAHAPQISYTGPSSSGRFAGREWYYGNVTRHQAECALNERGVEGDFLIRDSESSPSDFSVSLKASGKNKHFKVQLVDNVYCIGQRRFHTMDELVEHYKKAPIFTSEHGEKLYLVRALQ
# UniProt Q15003, whole entry, looked up: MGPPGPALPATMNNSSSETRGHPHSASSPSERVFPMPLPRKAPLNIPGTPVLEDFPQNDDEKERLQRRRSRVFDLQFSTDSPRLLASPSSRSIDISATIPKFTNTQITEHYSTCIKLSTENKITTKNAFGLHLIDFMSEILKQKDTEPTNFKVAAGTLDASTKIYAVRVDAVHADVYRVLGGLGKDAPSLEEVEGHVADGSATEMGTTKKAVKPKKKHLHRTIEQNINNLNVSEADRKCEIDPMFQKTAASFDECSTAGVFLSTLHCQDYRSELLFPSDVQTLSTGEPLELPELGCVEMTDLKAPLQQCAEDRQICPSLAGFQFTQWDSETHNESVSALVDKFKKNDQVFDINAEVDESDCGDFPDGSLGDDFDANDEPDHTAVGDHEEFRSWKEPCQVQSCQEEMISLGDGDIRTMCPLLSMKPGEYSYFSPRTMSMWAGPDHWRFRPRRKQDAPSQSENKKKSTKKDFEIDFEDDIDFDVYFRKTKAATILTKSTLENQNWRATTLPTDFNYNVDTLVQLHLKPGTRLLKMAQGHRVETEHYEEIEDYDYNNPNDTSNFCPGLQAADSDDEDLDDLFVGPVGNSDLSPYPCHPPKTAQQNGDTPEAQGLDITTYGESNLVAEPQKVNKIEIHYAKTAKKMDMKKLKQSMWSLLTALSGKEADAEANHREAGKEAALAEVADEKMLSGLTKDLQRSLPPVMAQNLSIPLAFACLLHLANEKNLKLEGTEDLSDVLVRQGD
# UniProt Q9BSU3: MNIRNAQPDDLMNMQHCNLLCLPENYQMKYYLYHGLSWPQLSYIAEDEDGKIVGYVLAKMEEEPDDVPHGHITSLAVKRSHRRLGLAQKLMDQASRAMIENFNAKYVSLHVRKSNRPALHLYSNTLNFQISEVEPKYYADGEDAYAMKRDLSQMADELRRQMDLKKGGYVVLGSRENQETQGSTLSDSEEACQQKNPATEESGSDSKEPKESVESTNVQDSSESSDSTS
# UniProt Q8NI08: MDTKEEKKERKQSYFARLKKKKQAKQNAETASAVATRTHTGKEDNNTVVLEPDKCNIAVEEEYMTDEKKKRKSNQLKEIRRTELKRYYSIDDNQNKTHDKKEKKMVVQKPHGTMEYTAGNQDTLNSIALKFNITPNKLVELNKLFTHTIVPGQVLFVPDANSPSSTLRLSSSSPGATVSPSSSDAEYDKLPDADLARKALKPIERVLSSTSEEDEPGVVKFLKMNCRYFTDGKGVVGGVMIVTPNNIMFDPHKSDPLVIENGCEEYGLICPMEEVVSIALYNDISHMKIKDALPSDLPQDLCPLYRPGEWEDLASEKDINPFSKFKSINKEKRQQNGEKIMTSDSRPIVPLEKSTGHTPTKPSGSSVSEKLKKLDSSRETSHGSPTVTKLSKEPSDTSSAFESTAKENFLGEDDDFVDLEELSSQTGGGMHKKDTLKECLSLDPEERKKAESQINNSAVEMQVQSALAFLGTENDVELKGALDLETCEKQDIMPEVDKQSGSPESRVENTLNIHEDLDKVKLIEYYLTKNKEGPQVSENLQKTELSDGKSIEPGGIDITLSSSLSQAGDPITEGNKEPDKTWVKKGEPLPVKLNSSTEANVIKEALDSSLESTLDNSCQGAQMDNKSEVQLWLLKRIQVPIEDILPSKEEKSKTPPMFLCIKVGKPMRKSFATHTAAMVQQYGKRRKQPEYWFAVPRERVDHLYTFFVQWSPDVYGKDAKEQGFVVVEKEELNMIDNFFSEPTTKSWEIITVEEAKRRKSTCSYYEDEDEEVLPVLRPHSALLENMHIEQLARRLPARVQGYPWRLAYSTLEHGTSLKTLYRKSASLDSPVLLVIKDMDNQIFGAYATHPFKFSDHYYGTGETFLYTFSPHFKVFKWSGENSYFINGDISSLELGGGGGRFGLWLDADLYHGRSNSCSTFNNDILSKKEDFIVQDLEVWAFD
# The other results are listed elsewhere or left out.
# Experiments:
# Assay in all cases: log2 fold change, soluble protein after heating vs DMSO (PISA); higher = thermal stabilisation; K562 lysate, 10 uM; active = over 0.2 and 3.5 SD of the protein, either way, in both replicates (recomputed)
# nilotinib = compound: Cc1cn(-c2cc(NC(=O)c3ccc(C)c(Nc4nccc(-c5cccnc5)n4)c3)cc(C(F)(F)F)c2)cn1 [nilotinib]
# Procedure, shortened: (§1)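 K562 pellets were dounce-homogenised in PBS pH 7.4 with 1 mM MgCl2, and the crude extract at 1 mg/mL protein was treated with 10 μM compound for 30 min. Aliquots were heated for 3 min across 48°C-58°C, pooled, and brought to 0.5% NP-40 at 4°C; soluble protein was the supernatant after 21,000xg for 90 min. Soluble protein was quantified by TMTpro 16plex LC-MS/MS with channel sums equalised, and reported as log2 fold change in thermal stability against DMSO controls, with values from duplicates.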
# [1] = compound: Cc1nc(Nc2n[nH]c3c2CN(C(=O)N[C@H](CN(C)C)c2ccccc2)C3(C)C)c2sccc2n1
# Procedure, shortened: as §1
# dasatinib = compound: Cc1nc(Nc2ncc(C(=O)Nc3c(C)cccc3Cl)s2)cc(N2CCN(CCO)CC2)n1 [dasatinib]
# Procedure, shortened: as §1
# [2] = compound: Cc1ncc(-c2ccnc(Nc3ccc(S(C)(=O)=O)cc3)n2)n1C(C)C
# Procedure, shortened: as §1
# [3] = compound: Cn1cc(-c2ccc3c(c2)CCN3C(=O)Cc2cccc(C(F)(F)F)c2)c2c(N)ncnc21
# Procedure, shortened: as §1
# quisinostat = compound: Cn1cc(CNCC2CCN(c3ncc(C(=O)NO)cn3)CC2)c2ccccc21 [quisinostat]
# Procedure, shortened: as §1
# tipifarnib = compound: Cn1cncc1[C@@](N)(c1ccc(Cl)cc1)c1ccc2c(c1)c(-c1cccc(Cl)c1)cc(=O)n2C [tipifarnib]
# Procedure, shortened: as §1
# [4] = compound: NC(=O)Nc1cc(-c2cccc(F)c2)sc1C(=O)N[C@H]1CCCNC1
# Procedure, shortened: as §1
# [5] = compound: NC(=O)c1cnc(N[C@@H]2CCCC[C@@H]2N)nc1Nc1cccc(-n2nccn2)c1
# Procedure, shortened: as §1
# [6] = compound: NC1(c2ccc(-c3nc4ccn5c(=O)[nH]nc5c4cc3-c3ccccc3)cc2)CCC1
# Procedure, shortened: as §1
# [7] = compound: NCC(=O)Nc1ccc(-n2nc(C(F)(F)F)cc2-c2ccc3c(ccc4ccccc43)c2)cc1
# Procedure, shortened: as §1
# vorinostat = compound: O=C(CCCCCCC(=O)Nc1ccccc1)NO [vorinostat]
# Procedure, shortened: as §1
# silmitasertib = compound: O=C(O)c1ccc2c(c1)nc(Nc1cccc(Cl)c1)c1ccncc12 [silmitasertib]
# Procedure, shortened: as §1
# [8] = compound: O=C1NC(=O)C(c2cnc3ccccn23)=C1c1cn2c3c(cc(F)cc13)CN(C(=O)N1CCCCC1)CC2
# Procedure, shortened: as §1
# entospletinib = compound: c1cn2cc(-c3ccc4cn[nH]c4c3)nc(Nc3ccc(N4CCOCC4)cc3)c2n1 [entospletinib]
# Procedure, shortened: as §1
Target,log2 fold change (nilotinib),log2 fold change [1],log2 fold change (dasatinib),log2 fold change [2],log2 fold change [3],log2 fold change (quisinostat),log2 fold change (tipifarnib),log2 fold change [4],log2 fold change [5],log2 fold change [6],log2 fold change [7],log2 fold change (vorinostat),log2 fold change (silmitasertib),log2 fold change [8],log2 fold change (entospletinib)
NCEH1 (UniProt Q6PIU2),inactive: 0.035,inactive: 0.017,inactive: 0.04,inactive: -0.034,inactive: 0.046,inactive: 0.024,inactive: 0,inactive: -0.003,inactive: 0.009,inactive: 0.004,inactive: -0.019,inactive: 0.128,inactive: 0.006,inactive: -0.008,inactive: -0.039
NARS1 (UniProt O43776),inactive: 0.009,inactive: -0.016,inactive: -0.018,inactive: -0.021,inactive: 0.025,inactive: 0,inactive: -0.01,inactive: 0,inactive: 0.021,inactive: 0.013,inactive: -0.016,inactive: -0.194,inactive: -0.01,inactive: -0.013,inactive: 0.007
NAA15 (UniProt Q9BXJ9),inactive: -0.007,inactive: 0.006,inactive: -0.023,inactive: -0.004,inactive: 0.009,inactive: 0.023,inactive: 0.013,inactive: -0.001,inactive: 0.008,inactive: -0.006,inactive: -0.011,inactive: -0.139,inactive: 0.029,inactive: 0.014,inactive: 0
NCOR1 (UniProt O75376),inactive: 0.006,inactive: 0.012,inactive: -0.031,inactive: -0.019,inactive: 0.008,inactive: -0.064,inactive: -0.046,inactive: 0.021,inactive: 0.029,inactive: 0.003,inactive: 0.021,active: -0.239,inactive: -0.035,inactive: 0.014,inactive: -0.01
NCK2 (UniProt O43639),inactive: 0.024,inactive: 0.007,inactive: 0.011,inactive: -0.051,inactive: 0.018,inactive: 0.009,inactive: -0.04,inactive: -0.006,inactive: -0.012,inactive: -0.052,inactive: -0.049,inactive: -0.036,inactive: 0.005,inactive: -0.101,inactive: 0.015
MVB12A (UniProt Q96EY5),inactive: -0.025,inactive: -0.05,inactive: 0.006,inactive: 0.008,inactive: 0.04,inactive: 0.033,inactive: 0.032,inactive: 0.022,inactive: -0.009,inactive: 0.036,inactive: -0.002,active: -0.812,inactive: -0.016,inactive: 0.016,inactive: 0.042
NCAPH (UniProt Q15003),inactive: -0.033,inactive: 0,inactive: -0.03,inactive: -0.017,inactive: -0.017,inactive: 0.005,inactive: 0.023,inactive: 0.013,inactive: 0.006,inactive: -0.017,inactive: -0.031,active: -0.33,inactive: 0.009,inactive: -0.01,inactive: -0.004
NCKAP1L (UniProt P55160),inactive: 0.001,inactive: -0.017,inactive: -0.034,inactive: 0.072,inactive: 0.005,inactive: -0.034,inactive: 0.032,inactive: 0.055,inactive: 0.017,inactive: 0.023,inactive: 0.288,active: -0.444,inactive: -0.039,inactive: -0.001,inactive: 0.029
NAA11 (UniProt Q9BSU3),inactive: 0.033,inactive: -0.001,inactive: 0.034,inactive: 0.032,inactive: -0.037,inactive: 0.114,inactive: 0.03,inactive: -0.05,inactive: 0.035,inactive: 0.016,inactive: 0.023,inactive: -0.014,inactive: -0.014,inactive: 0.036,inactive: -0.008
NCOA7 (UniProt Q8NI08),inactive: -0.009,inactive: -0.005,inactive: -0.016,inactive: 0.016,inactive: 0.005,inactive: -0.007,inactive: -0.002,inactive: 0.019,inactive: -0.006,inactive: 0.005,inactive: 0.038,inactive: -0.091,inactive: -0.012,inactive: -0.001,inactive: -0.013
